Laboratory results reported in US20250320294A1.
Results are given in words; binding and its absence hold for the method and conditions named. Some binding calls cover weakened binding; strength is not graded here.

The chains behind the UniProt entries cited, without tags or fusion partners. Residues count along the entry.
UniProt P08575, residues 26-1306: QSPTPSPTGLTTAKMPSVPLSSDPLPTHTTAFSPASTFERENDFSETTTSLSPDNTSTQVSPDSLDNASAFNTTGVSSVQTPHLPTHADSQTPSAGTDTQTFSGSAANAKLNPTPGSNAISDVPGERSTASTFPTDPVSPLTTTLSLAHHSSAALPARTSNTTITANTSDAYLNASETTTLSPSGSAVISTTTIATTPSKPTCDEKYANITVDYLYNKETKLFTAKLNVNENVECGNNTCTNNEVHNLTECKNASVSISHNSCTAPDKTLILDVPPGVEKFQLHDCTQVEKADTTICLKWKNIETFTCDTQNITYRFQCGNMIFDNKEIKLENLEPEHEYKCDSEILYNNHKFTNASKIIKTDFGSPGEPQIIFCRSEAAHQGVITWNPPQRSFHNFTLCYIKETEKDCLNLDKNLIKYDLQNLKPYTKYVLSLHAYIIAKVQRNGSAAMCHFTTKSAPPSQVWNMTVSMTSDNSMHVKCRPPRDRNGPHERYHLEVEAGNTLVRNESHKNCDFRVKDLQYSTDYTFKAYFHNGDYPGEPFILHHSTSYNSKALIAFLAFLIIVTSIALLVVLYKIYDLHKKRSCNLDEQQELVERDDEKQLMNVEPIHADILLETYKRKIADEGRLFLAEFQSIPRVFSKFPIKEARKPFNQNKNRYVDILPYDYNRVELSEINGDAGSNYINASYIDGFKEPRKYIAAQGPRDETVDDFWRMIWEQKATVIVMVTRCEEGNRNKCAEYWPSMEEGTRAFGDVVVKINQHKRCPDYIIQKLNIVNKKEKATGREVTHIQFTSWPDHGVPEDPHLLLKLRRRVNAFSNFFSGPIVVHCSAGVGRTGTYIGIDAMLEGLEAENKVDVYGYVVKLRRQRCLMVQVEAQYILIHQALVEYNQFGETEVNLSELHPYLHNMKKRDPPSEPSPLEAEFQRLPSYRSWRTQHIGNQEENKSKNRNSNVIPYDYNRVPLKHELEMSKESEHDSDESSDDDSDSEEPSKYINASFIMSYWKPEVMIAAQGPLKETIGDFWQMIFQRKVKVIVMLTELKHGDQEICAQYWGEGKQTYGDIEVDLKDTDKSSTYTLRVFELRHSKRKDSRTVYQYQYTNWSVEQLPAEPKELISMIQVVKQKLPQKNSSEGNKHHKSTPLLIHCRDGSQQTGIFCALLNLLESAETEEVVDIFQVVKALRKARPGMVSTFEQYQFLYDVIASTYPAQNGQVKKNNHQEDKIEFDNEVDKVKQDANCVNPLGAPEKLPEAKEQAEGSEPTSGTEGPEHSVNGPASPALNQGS

Columns and labels:
[1] = target: cell-expressed CD45 (UniProt P08575); experiment: flow cytometry, Raji cells
[2] = target: cell-expressed CD45 (UniProt P08575); experiment: flow cytometry, Jurkat cells
[3] = target: cell-expressed CD45 (UniProt P08575); experiment: flow cytometry, wild type Raji B cells, 10, 1 or 0.1 µg/ml antibody, anti-human-Fc secondary
[4] = target: cell-expressed CD45 (UniProt P08575); experiment: flow cytometry, wild type Jurkat T cells, 10, 1 or 0.1 µg/ml antibody, anti-human-Fc secondary

Measured: binding

B1: anti-CD45 antibody clone 031 (antibody, V domains shown)
VH: DVQLVESGGGLVQPGGSRKLSCAASGFTFSSFGMHWVRQAPEKGLEWVAYINSGSTTFYYADTVKGRFTISRDNPKNTLFLQMTSLGSEDTAMYYCARSATATWTMDYWGQGTSVTVSS
VL: NIMMTQSPSSLAVSAGEKVTMSCKSSQSVFVSSNQKNYLAWYQQKPGQSPKLLIYWASTRESAVPDRFTGSGSGTDFTLTIGSVQAEDLAVYYCHQYLSSWTFGGGTKLEIK
binds: all assays above

B2: anti-CD45 antibody clone 028 (antibody, V domains shown)
VH: QVQLQQSGAELARPGASVKMSCKASGYTFTFYAILWVKQMPGQGLEWIGFINPSSGYTSYNQKFKDKATLTADKSSSTAYMQLSSLTSEDSAVYYCARDYGLDYWGQGTTLAVSS
VL: DIVMTQAAPSVPVTPGESVSISCRSSKSLLHSNGNTYLYWFLQRPGQSPQLLIYRMSNLASGVPDRFSGSGSGTAFTLGISRVEAGDVGVYYCMQHLEYPFTFGSGTKLEIK
binds: all assays above

B3: anti-CD45 antibody clone 042 (antibody, V domains shown)
VH: EVQLQQSGAELVKPGASVKLSCTASGFNIKDTFMHWVKLRPEQGLEWIGRIDPANGYTKYDPRFQGKATIIADTSSNTAYLQLSSLTSEDTAVYYCASGEYYALDYWGQGTSVTVSS
VL: DIVLTQSPASLTVSLGQRATISCRASKSVSTSGYSYMHWYQQKPGQPPKLLIYLASNLESGVPARFSGSGSGTDFTLNIHPVEEEDAATYYCQHNRELPYTFGGGTKLEIK
binds: all assays above
